The supplement of paper PMC10849652
This is one part of the list.

By UniProt entry, the sequences of proteins in these tests, tags left out. Where a name states a change or a piece, a line headed by the entry shows the natural chain unless it says otherwise.
UniProt Q9Y6I9: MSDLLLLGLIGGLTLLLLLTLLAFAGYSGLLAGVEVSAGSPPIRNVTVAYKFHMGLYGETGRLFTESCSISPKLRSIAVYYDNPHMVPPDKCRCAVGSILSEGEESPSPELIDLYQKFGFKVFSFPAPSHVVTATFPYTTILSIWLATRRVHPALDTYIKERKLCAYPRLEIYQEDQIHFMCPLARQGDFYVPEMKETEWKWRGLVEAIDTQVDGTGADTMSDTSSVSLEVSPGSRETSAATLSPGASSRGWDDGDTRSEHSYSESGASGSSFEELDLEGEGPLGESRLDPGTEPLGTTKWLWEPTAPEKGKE
UniProt Q8TC07: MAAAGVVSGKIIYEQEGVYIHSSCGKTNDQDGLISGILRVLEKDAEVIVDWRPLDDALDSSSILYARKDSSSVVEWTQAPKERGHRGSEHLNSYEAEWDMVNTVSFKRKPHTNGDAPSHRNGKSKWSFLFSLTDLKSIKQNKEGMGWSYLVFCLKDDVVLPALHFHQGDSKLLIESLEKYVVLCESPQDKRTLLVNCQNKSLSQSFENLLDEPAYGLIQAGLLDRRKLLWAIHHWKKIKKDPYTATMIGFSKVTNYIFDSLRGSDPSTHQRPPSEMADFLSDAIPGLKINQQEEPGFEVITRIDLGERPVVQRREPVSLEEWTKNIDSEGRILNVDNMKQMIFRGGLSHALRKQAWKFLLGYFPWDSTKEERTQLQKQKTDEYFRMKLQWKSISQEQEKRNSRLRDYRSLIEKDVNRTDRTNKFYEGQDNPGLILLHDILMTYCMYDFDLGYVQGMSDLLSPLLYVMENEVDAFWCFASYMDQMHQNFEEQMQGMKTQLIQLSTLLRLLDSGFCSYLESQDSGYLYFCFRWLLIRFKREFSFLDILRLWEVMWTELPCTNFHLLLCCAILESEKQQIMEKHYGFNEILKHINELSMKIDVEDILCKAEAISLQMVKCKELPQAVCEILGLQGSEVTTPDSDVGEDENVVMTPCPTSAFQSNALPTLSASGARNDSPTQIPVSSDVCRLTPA
UniProt Q7L7X3: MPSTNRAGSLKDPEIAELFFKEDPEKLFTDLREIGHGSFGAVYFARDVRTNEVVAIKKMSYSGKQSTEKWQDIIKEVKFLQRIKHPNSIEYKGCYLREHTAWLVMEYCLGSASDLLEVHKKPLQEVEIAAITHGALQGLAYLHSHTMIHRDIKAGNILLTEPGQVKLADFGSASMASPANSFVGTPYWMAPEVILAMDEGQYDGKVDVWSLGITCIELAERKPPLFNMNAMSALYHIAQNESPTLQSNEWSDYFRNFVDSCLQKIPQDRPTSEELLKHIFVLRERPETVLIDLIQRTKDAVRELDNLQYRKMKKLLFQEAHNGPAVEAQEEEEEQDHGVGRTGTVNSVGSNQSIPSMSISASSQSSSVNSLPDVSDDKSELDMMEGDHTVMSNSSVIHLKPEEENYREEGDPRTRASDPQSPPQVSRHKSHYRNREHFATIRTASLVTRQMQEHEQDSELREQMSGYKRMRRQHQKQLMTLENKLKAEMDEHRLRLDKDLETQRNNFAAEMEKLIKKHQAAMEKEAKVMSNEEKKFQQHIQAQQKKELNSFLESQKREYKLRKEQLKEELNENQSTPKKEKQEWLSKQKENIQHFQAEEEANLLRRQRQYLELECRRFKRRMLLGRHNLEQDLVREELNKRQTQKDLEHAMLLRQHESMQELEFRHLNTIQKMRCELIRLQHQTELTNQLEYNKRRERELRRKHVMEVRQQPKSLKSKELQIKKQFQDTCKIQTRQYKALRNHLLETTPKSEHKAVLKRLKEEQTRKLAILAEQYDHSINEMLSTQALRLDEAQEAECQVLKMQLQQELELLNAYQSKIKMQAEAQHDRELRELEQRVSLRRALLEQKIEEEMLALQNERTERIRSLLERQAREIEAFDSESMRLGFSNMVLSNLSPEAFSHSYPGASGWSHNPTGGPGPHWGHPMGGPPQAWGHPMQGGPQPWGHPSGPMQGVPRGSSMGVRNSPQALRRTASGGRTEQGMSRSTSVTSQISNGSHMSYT
UniProt Q15554: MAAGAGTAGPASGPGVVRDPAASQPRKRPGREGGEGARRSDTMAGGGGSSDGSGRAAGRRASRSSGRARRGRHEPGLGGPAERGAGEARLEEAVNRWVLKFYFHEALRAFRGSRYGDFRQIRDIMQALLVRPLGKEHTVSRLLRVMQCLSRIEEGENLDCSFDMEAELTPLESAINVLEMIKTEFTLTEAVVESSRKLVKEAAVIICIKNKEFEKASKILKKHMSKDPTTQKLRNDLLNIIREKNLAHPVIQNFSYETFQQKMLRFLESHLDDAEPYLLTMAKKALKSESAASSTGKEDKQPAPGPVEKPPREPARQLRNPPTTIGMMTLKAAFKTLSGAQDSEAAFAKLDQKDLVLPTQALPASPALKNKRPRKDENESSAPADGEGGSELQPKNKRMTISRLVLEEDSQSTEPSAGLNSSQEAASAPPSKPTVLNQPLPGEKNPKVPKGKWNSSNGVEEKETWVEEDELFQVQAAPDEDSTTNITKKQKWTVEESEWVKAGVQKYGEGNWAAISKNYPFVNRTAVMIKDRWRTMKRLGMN
UniProt Q14186: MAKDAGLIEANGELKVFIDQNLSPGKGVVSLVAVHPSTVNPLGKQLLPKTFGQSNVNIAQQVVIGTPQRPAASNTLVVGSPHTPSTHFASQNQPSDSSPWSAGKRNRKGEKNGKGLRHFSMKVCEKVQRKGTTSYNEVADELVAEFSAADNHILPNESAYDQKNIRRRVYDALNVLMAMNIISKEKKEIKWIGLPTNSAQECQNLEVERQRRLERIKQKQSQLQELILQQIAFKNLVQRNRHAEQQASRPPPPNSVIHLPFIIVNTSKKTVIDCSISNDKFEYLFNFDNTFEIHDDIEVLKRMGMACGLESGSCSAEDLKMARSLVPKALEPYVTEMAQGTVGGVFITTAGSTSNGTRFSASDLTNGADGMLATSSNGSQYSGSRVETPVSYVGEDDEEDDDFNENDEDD
UniProt Q9NZ01: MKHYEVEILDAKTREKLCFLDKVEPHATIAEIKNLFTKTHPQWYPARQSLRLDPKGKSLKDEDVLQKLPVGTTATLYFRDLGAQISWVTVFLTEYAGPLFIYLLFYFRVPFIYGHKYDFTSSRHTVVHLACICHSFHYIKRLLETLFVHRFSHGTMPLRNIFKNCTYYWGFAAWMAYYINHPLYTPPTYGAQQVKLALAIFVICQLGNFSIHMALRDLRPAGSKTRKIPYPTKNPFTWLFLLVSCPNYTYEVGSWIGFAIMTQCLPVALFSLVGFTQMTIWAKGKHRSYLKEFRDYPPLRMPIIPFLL
UniProt Q8NFU7: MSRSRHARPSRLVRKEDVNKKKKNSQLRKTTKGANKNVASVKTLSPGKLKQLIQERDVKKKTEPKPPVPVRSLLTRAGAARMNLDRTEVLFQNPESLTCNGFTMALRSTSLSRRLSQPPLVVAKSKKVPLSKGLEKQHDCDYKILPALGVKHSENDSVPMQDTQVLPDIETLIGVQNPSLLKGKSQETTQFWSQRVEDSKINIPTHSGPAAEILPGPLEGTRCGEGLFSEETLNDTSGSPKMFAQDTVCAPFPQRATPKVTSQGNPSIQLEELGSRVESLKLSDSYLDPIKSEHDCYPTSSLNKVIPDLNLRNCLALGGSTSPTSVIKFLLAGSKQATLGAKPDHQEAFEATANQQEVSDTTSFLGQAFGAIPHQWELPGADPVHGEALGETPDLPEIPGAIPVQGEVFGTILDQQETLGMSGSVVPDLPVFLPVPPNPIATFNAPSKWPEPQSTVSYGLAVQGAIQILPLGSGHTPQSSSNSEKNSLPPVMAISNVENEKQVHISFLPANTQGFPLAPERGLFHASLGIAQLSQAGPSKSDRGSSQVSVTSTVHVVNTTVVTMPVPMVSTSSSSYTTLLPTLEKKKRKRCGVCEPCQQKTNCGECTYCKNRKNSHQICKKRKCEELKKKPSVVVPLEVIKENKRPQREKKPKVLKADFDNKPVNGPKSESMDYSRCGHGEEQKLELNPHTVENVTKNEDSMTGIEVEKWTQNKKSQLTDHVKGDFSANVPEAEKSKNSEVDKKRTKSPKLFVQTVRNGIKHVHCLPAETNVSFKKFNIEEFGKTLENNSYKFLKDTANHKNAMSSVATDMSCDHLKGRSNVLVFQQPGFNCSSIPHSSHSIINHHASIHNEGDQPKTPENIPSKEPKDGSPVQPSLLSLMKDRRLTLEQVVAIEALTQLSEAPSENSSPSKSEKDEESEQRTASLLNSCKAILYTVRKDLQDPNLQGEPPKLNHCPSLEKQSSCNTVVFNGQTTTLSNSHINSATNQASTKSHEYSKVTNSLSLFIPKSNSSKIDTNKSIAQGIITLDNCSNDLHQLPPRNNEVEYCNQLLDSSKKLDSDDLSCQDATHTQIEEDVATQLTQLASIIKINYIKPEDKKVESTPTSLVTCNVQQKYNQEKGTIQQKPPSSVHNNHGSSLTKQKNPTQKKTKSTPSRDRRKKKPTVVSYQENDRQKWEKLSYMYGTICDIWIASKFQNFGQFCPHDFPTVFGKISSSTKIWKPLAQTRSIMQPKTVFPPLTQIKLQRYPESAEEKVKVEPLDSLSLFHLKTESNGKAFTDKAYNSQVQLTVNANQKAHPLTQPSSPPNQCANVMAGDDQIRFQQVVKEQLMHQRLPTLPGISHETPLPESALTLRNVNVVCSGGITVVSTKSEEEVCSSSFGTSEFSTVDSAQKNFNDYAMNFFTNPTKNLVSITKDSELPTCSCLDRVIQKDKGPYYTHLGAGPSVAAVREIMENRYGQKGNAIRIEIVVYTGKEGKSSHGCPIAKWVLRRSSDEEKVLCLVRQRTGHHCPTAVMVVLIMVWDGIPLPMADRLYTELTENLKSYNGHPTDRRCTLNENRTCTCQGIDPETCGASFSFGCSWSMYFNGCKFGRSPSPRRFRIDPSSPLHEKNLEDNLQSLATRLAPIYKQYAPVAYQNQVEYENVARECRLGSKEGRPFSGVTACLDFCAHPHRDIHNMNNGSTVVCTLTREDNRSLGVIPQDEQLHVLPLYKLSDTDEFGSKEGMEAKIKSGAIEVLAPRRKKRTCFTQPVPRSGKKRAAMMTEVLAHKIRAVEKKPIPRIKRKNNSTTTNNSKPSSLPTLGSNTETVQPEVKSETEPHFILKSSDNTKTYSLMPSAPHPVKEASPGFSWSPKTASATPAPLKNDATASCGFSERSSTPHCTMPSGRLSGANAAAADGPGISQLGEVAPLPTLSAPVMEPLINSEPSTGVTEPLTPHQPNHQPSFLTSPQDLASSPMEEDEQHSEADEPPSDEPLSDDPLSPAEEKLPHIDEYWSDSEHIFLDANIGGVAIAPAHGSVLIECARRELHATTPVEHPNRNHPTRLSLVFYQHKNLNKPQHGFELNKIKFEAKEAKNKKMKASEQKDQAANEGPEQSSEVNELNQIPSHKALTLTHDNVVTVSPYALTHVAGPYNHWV
UniProt Q15813: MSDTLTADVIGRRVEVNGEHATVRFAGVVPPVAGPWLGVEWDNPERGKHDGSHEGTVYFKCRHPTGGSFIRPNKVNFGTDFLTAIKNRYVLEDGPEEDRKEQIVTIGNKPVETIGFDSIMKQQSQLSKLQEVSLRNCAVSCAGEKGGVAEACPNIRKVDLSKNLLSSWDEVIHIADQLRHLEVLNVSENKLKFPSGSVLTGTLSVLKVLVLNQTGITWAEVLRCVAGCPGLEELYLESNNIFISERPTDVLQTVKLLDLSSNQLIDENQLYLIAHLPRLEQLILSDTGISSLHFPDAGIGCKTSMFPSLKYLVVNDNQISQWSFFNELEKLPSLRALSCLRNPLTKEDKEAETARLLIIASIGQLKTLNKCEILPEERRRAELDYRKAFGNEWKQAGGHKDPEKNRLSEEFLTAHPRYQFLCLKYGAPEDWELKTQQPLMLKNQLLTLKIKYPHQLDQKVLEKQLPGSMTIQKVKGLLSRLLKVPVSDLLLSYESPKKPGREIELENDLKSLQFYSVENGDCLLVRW
UniProt Q7Z7C8, whole entry, looked up: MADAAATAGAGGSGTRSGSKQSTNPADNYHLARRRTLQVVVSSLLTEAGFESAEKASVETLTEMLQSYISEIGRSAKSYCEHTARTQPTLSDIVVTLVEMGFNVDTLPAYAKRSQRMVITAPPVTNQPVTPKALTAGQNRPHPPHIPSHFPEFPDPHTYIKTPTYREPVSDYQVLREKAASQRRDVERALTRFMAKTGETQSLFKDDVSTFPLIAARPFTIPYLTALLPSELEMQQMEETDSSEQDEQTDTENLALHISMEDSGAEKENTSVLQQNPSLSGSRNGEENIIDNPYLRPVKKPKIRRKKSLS
UniProt Q15814: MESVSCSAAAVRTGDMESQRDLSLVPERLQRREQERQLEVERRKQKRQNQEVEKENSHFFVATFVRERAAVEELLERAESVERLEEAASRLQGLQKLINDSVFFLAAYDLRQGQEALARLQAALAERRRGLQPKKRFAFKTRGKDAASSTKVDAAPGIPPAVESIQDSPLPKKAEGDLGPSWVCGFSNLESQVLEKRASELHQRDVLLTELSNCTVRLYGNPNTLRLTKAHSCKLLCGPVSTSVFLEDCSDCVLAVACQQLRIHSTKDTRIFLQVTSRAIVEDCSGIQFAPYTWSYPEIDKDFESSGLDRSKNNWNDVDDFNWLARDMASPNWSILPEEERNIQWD

The targets below were run with NC(=O)c1cnc(N[C@@H]2CCCC[C@@H]2N)nc1Nc1cccc(-n2nccn2)c1 (assay: log2 fold change, soluble protein after heating vs DMSO (PISA); higher = thermal stabilisation; K562 lysate, 10 uM; active = over 0.2 and 3.5 SD of the protein, either way, in both replicates (recomputed)).
Procedure, shortened: (§1)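 Thermal stability, expressed as log-two fold change relative to solvent controls, is given from duplicates. Crude K562 extract in PBS pH 7.4 with 1 mM MgCl2, at 1 mg/mL protein, was treated with 10 μM compound for 30 min and heated in aliquots for 3 min across 48°C-58°C. After pooling, adjustment to 0.5% NP-40 at 4°C and centrifugation at 21,000xg for 90 min, supernatant protein was measured by TMTpro 16plex LC-MS/MS with channel sums equalised.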

log2 fold change, inactive:
TBC1D13 (UniProt Q9NVG8) 0.002
TBC1D2 (UniProt Q9BYX2) 0.01
TEX264 (UniProt Q9Y6I9) -0.067
TANGO6 (UniProt Q9C0B7) -0.037
TAOK3 (UniProt Q9H2K8) 0.019
TANK (UniProt Q92844) 0.042
TBC1D15 isoform 3 (UniProt Q8TC07) -0.008
TEX10 (UniProt Q9NXF1) 0.058
TBC1D20 isoform 3 (UniProt Q96BZ9) -0.072
TBC1D2B (UniProt Q9UPU7) -0.021
TAF6L (UniProt Q9Y6J9) 0.028
TAOK1 (UniProt Q7L7X3) 0.048
TBP (UniProt P20226) 0.035
TARS2 (UniProt Q9BW92) 0.018
TERF2 (UniProt Q15554) 0.048
TBCK (UniProt Q8TEA7) 0.074
TCEAL4 isoform 2 (UniProt Q96EI5) -0.001
TBC1D22B (UniProt Q9NU19) 0.009
TBC1D8B (UniProt Q0IIM8) -0.042
TBC1D10A (UniProt Q9BXI6) 0.04
TFIP11 (UniProt Q9UBB9) 0
TFDP1 (UniProt Q14186) 0.021
TEPSIN, A0A1B0GV70 0.012
TESC (UniProt Q96BS2) -0.035
TECR (UniProt Q9NZ01) -0.009
TET1 (UniProt Q8NFU7) 0.048
TFRC (UniProt P02786) -0.019
TBCE (UniProt Q15813) 0.015
TAF8 isoform 2 (UniProt Q7Z7C8) 0.044
TBCC (UniProt Q15814) 0.006
TAF9 (UniProt Q16594) 0.084
TAF9B (UniProt Q9HBM6) 0.143
TBL3 (UniProt Q12788) -0.032

Each target was assayed with NC1(c2ccc(-c3nc4ccn5c(=O)[nH]nc5c4cc3-c3ccccc3)cc2)CCC1 in the same assay as above.
Procedure, shortened: as §1

log2 fold change, inactive:
TBC1D13 (UniProt Q9NVG8) 0.008
TBC1D2 (UniProt Q9BYX2) 0.024
TEX264 (UniProt Q9Y6I9) -0.017
TANGO6 (UniProt Q9C0B7) -0.001
TAOK3 (UniProt Q9H2K8) -0.022
TANK (UniProt Q92844) 0.01
TBC1D15 isoform 3 (UniProt Q8TC07) -0.006
TEX10 (UniProt Q9NXF1) -0.072
TBC1D20 isoform 3 (UniProt Q96BZ9) -0.006
TBC1D2B (UniProt Q9UPU7) 0.006
TAF6L (UniProt Q9Y6J9) 0.034
TAOK1 (UniProt Q7L7X3) 0.017
TBP (UniProt P20226) -0.012
TARS2 (UniProt Q9BW92) 0.007
TERF2 (UniProt Q15554) -0.022
TBCK (UniProt Q8TEA7) 0.023
TBC1D22B (UniProt Q9NU19) -0.071
TBC1D8B (UniProt Q0IIM8) -0.034
TBC1D10A (UniProt Q9BXI6) -0.041
TFIP11 (UniProt Q9UBB9) -0.004
TFDP1 (UniProt Q14186) 0.077
TEPSIN, A0A1B0GV70 0.062
TESC (UniProt Q96BS2) 0.049
TECR (UniProt Q9NZ01) -0.047
TET1 (UniProt Q8NFU7) -0.195
TFRC (UniProt P02786) 0.019
TBCE (UniProt Q15813) -0.041
TAF8 isoform 2 (UniProt Q7Z7C8) -0.001
TBCC (UniProt Q15814) -0.017
TAF9 (UniProt Q16594) -0.024
TAF9B (UniProt Q9HBM6) -0.02
TBL3 (UniProt Q12788) -0.052
